Source: publication PMC6572760
Results are given in words; binding and its absence hold for the method and conditions named. Binding seen in cells or lysates may run through a third protein. Here binding means that the protein was enriched with, or labelled near, the bait; the list need not be complete. Tags and fused reporters may be left off the sequences shown.

Amino acid sequences for entries named in this document (tags omitted).
UniProt Q06681: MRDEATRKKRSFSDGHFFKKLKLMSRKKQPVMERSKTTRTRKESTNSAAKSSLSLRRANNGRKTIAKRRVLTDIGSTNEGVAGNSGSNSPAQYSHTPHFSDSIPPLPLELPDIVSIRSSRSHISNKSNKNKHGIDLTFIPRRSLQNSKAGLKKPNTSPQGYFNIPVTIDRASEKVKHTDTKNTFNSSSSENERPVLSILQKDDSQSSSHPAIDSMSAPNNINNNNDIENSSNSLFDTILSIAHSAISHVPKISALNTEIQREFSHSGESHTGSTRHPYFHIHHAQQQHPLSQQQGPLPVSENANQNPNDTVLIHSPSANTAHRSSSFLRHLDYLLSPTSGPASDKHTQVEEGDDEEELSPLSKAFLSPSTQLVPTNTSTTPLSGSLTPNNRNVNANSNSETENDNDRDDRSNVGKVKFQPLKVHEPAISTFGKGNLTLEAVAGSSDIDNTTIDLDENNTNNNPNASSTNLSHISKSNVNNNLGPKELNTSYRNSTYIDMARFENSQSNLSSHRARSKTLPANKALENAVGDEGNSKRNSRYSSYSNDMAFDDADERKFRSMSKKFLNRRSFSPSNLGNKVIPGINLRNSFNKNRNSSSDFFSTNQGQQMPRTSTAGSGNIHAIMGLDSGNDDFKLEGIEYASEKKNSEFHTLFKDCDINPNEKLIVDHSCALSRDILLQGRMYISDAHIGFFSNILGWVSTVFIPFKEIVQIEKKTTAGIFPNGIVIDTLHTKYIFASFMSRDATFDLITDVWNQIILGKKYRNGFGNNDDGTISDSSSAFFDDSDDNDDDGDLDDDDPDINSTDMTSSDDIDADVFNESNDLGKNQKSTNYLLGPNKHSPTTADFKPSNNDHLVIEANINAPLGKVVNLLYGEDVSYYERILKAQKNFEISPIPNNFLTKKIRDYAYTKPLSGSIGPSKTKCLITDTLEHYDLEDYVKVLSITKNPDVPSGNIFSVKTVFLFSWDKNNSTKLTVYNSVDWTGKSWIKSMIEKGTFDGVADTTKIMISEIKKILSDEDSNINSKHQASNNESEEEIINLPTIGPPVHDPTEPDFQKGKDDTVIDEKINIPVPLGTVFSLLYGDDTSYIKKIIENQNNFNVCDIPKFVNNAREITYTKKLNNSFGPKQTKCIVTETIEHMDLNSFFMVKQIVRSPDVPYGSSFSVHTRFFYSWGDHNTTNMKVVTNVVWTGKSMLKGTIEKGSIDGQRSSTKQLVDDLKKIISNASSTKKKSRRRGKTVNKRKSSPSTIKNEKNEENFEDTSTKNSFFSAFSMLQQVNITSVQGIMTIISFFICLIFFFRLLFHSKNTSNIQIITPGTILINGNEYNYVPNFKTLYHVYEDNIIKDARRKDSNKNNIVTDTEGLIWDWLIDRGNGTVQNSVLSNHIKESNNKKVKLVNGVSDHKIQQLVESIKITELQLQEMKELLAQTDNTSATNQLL

What was measured:
Assay in all cases: proximity labelling; M-track protein-protein proximity assay in living yeast: bait fused to HKMTmyc tri-methylates the H3 moiety of Hog1-protA-H3 on close proximity; cells treated with 1 M sorbitol for 40 min (unstressed cells also tested); me3K9H3 over HA signal by Western blot of urea extracts, compared with a strain expressing only Hog1-protA-H3
[1] = biological target: T1, Psp2-HKMTmyc (S. cerevisiae) (UniProt P50109)
T1 sequence: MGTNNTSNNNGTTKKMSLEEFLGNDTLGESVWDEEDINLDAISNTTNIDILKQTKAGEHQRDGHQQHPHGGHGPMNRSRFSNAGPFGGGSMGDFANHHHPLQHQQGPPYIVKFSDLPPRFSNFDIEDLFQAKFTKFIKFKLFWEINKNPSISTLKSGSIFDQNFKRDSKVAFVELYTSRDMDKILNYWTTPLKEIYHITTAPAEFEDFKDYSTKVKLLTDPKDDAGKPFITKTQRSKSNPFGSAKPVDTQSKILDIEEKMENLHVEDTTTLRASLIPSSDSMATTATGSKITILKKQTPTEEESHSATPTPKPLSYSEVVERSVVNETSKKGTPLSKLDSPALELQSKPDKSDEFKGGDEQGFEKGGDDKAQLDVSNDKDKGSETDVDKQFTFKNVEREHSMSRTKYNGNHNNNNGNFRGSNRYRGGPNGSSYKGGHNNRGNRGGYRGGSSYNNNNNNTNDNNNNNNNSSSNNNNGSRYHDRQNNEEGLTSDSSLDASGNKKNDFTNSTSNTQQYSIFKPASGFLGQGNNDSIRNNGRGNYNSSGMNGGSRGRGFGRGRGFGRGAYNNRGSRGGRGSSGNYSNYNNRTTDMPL

[2] = biological target: T2, Kic1-HKMTmyc (S. cerevisiae) (UniProt P38692)
T2 sequence: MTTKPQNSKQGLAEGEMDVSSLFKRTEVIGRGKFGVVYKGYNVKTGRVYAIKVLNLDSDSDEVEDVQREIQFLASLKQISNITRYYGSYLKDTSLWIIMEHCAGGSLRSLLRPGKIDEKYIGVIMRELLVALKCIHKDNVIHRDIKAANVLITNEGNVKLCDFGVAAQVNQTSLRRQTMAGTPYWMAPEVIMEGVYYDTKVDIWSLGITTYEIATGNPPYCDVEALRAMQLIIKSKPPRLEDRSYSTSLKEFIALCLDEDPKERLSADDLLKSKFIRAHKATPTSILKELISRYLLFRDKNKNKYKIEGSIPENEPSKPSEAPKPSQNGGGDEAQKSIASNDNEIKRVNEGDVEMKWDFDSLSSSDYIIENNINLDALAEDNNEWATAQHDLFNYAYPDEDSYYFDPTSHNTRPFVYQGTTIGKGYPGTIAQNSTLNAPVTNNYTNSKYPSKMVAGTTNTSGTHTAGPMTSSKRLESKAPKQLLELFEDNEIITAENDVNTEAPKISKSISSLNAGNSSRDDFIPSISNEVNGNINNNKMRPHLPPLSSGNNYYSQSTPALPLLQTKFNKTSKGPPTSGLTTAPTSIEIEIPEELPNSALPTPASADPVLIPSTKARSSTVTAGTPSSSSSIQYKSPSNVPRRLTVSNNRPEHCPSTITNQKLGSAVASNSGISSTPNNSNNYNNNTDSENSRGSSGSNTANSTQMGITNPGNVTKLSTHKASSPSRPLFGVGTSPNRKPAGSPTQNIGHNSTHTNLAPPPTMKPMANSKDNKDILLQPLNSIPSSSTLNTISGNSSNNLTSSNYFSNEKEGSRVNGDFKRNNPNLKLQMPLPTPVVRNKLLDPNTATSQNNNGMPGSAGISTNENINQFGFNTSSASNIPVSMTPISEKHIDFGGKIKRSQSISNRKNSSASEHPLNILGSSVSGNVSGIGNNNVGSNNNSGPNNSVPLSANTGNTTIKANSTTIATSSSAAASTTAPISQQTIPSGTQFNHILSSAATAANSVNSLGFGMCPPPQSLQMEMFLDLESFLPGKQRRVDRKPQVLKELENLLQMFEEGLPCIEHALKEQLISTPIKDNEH

[3] = biological target: Ysp2-HKMTmyc (C-terminal fusion) (S. cerevisiae) (UniProt Q06681)
[4] = biological target: T3, Gcs1-HKMTmyc (S. cerevisiae) (UniProt P35197)
T3 sequence: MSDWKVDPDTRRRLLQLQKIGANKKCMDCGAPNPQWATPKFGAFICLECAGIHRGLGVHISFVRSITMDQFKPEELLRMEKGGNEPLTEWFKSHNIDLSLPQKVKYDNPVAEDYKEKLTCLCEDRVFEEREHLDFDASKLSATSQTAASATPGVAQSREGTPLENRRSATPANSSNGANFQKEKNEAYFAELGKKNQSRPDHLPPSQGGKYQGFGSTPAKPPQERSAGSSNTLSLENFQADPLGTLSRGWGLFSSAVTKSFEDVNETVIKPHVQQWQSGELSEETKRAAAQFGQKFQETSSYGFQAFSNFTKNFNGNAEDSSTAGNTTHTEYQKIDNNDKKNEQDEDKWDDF

Measured: binding

B1: Hog1-TEV-ProteinA-Histone3-HA (enzyme, UniProt P32485 1-435)
chain: MTTNEEFIRTQIFGTVFEITNRYNDLNPVGMGAFGLVCSATDTLTSQPVAIKKIMKPFSTAVLAKRTYRELKLLKHLRHENLICLQDIFLSPLEDIYFVTELQGTDLHRLLQTRPLEKQFVQYFLYQILRGLKYVHSAGVIHRDLKPSNILINENCDLKICDFGLARIQDPQMTGYVSTRYYRAPEIMLTWQKYDVEVDIWSAGCIFAEMIEGKPLFPGKDHVHQFSIITDLLGSPPKDVINTICSENTLKFVTSLPHRDPIPFSERFKTVEPDAVDLLEKMLVFDPKKRITAADALAHPYSAPYHDPTDEPVADAKFDWHFNDADLPVDTWRVMMYSEILDFHKIGGSDGQIDISATFDDQVAAATAAAAQAQAQAQAQVQLNMAAHSHNGAGTTGNDHSDIAGGNKVSDHVAANDTITDYGNQAIQYANEFQQ
binds: all assays above
